For part of these data: The source's definition of the ratio is not given here. Where a SMILES comes first, the peptide text is derived from it. The star is where a group is joined. Butanoyl(4-Ph) = O=C(CCCc1ccccc1)*; Hydrocinnamoyl = O=C(CCc1ccccc1)*; Octanoyl = CCCCCCCC(=O)*; X1 = CCCCCCC(CCCC)C(=O)*; X4 = O=C(/C=C/c1ccccc1)*; X2 = O=C(C#Cc1ccccc1)*; X3 = CCCCC(CC)C(=O)*
What was measured:
[1] = test system: Enterococcus faecium ATCC 700221; format: cell-based; details: calculated from MHC5 (hRBCs) and MIC
Description: (§1) Tests of the antibacterial activity were carried out as we just described. Briefly, for assays, the following strains of ESKAPE bacteria were chosen: Acinetobacter baumannii ATCC BAA-1605, Enterococcus faecium ATCC 700221, Klebsiella aerogenes ATCC 13048 (formerly Enterobacter aerogenes), Klebsiella pneumoniae ATCC 700603, and Pseudomonas aeruginosa ATCC 9027. Moreover, the reference strains of Staphylococcus aureus were used: S. aureus ATCC 25923, S. aureus ATCC 6538, S. aureus ATCC 33591 (MRSA), S. aureus ATCC 9144, and S. aureus ATCC 12598. Before experiments, all the strains were stored at −80 °C in Roti®-Store cryo vials (Carl Roth GmbH, Karlsruhe, Germany). To evaluate the activity of the compounds, bacteria were transferred into fresh Mueller–Hinton medium (Becton Dickinson, Warszawa, Poland) and incubated for 24 h at 37 °C. In the next step, bacterial inoculums were seeded on Mueller–Hinton agar plates (BioMaxima SA, Lublin, Poland) and incubated again for 24 h. The MIC values were determined using the broth microdilution method according to the Clinical and Laboratory Standards Institute Protocol. The initial inoculums of bacteria (0.5 × 10^5 colony forming units (CFU)/mL) prepared in Mueller–Hinton broth were exposed to the ranging concentrations of peptides (1–512 µg/mL). The experiments were conducted on 96-well microtiter plates, with a final volume of 100 µL. The inoculum densities were checked spectrophotometrically (Multiskan™ GO Microplate Spectrophotometer, Thermo Scientific, Waltham, MA, USA) at 600 nm. The results were read after incubation for 18 h at 37 °C. The MIC values were the lowest concentration at which a visible growth of microorganisms was inhibited. All experiments were conducted in triplicate. Moreover, positive (growth) and negative (sterility) controls were included.

[2] = test system: Klebsiella aerogenes ATCC 13048; format: cell-based; details: calculated from MHC5 (hRBCs) and MIC
Description: as §1

[3] = test system: Pseudomonas aeruginosa ATCC 9027; format: cell-based; details: calculated from MHC5 (hRBCs) and MIC
Description: as §1

[4] = test system: Klebsiella pneumoniae ATCC 700603; format: cell-based; details: calculated from MHC5 (hRBCs) and MIC
Description: as §1

[5] = calculated from MHC5 (hRBCs) and MIC

SMILES | Selectivity index E. faecium [1] | Selectivity index K. aerogenes [2] | Selectivity index P. aeruginosa [3] | Selectivity index K. pneumoniae [4] | Selectivity index A. baumannii [5]
CCCCCCCC(=O)N[C@@H](CCCCN)C(=O)N[C@@H](CCCNC(=N)N)C(=O)N[C@H](C(=O)N[C@H](C(=O)N[C@@H](CCC(N)=O)C(=O)N[C@@H](CCCNC(=N)N)C(=O)N[C@H](C(=O)N[C@@H](CCCCN)C(=O)N[C@@H](CC(=O)O)C(=O)N[C@@H](Cc1ccccc1)C(=O)N[C@@H](CC(C)C)C(=O)N[C@@H](CCCNC(=N)N)C(N)=O)[C@@H](C)CC)C(C)C)[C@@H](C)CC [II, C8^α-KR12-NH2] (Octanoyl-KRIVQRIKDFLR-NH2) | 16 | 16 | 4 | 8 | 
CCCCCCCC(=O)NCCCC[C@H](N)C(=O)N[C@@H](CCCNC(=N)N)C(=O)N[C@H](C(=O)N[C@H](C(=O)N[C@@H](CCC(N)=O)C(=O)N[C@@H](CCCNC(=N)N)C(=O)N[C@H](C(=O)N[C@@H](CCCCN)C(=O)N[C@@H](CC(=O)O)C(=O)N[C@@H](Cc1ccccc1)C(=O)N[C@@H](CC(C)C)C(=O)N[C@@H](CCCNC(=N)N)C(N)=O)[C@@H](C)CC)C(C)C)[C@@H](C)CC [III, C8^ε-KR12-NH2] (H-K(Octanoyl)RIVQRIKDFLR-NH2) | 128 | 8 | 8 | 16 | 
CCCCCCCC(=O)N[C@@H](CCCCN)C(=O)N[C@@H](CCCCN)C(=O)N[C@@H](CCCNC(=N)N)C(=O)N[C@H](C(=O)N[C@H](C(=O)N[C@@H](CCC(N)=O)C(=O)N[C@@H](CCCNC(=N)N)C(=O)N[C@H](C(=O)N[C@@H](CCCCN)C(=O)N[C@@H](CC(=O)O)C(=O)N[C@@H](Cc1ccccc1)C(=O)N[C@@H](CC(C)C)C(=O)N[C@@H](CCCNC(=N)N)C(N)=O)[C@@H](C)CC)C(C)C)[C@@H](C)CC [IV, C8^α-Lys-KR12-NH2] (Octanoyl-KKRIVQRIKDFLR-NH2) | 64 | 8 | 8 | 16 | 
CCCCCCCC(=O)NCCCC[C@H](N)C(=O)N[C@@H](CCCCN)C(=O)N[C@@H](CCCNC(=N)N)C(=O)N[C@H](C(=O)N[C@H](C(=O)N[C@@H](CCC(N)=O)C(=O)N[C@@H](CCCNC(=N)N)C(=O)N[C@H](C(=O)N[C@@H](CCCCN)C(=O)N[C@@H](CC(=O)O)C(=O)N[C@@H](Cc1ccccc1)C(=O)N[C@@H](CC(C)C)C(=O)N[C@@H](CCCNC(=N)N)C(N)=O)[C@@H](C)CC)C(C)C)[C@@H](C)CC [V, C8^ε-Lys-KR12-NH2] (H-K(Octanoyl)KRIVQRIKDFLR-NH2) | 64 | 4 | 16 | 16 | 
CCCCCCCC(=O)NCCCC[C@H](NC(=O)[C@H](CCCNC(=N)N)NC(=O)[C@H](CC(C)C)NC(=O)[C@H](Cc1ccccc1)NC(=O)[C@H](CC(=O)O)NC(=O)[C@H](CCCCN)NC(=O)[C@@H](NC(=O)[C@H](CCCNC(=N)N)NC(=O)[C@H](CCC(N)=O)NC(=O)[C@@H](NC(=O)[C@@H](NC(=O)[C@H](CCCNC(=N)N)NC(=O)[C@@H](N)CCCCN)[C@@H](C)CC)C(C)C)[C@@H](C)CC)C(N)=O [VI, KR12-Lys^ε(C8)-NH2] (H-KRIVQRIKDFLRK(Octanoyl)-NH2) | 128 | 8 | 16 | 16 | 
CCCCCCCC(=O)NCCCC[C@H](NC(=O)[C@@H](NC(=O)[C@H](CCCNC(=N)N)NC(=O)[C@H](CCC(N)=O)NC(=O)[C@@H](NC(=O)[C@@H](NC(=O)[C@H](CCCNC(=N)N)NC(=O)[C@@H](N)CCCCN)[C@@H](C)CC)C(C)C)[C@@H](C)CC)C(=O)N[C@@H](CC(=O)O)C(=O)N[C@@H](Cc1ccccc1)C(=O)N[C@@H](CC(C)C)C(=O)N[C@@H](CCCNC(=N)N)C(N)=O [VIII, [Lys^ε(C8)]^8KR12-NH2] (H-KRIVQRIK(Octanoyl)DFLR-NH2) | 8 | 2 | 1 | 2 | 
CCCCCCCC(=O)N[C@@H](CCCNC(=N)N)C(=O)N[C@@H](CC(C)C)C(=O)N[C@@H](Cc1ccccc1)C(=O)N[C@@H](CC(=O)O)C(=O)N[C@@H](CCCCN)C(=O)N[C@H](C(=O)N[C@@H](CCCNC(=N)N)C(=O)N[C@@H](CCC(N)=O)C(=O)N[C@H](C(=O)N[C@H](C(=O)N[C@@H](CCCNC(=N)N)C(=O)N[C@@H](CCCCN)C(N)=O)[C@@H](C)CC)C(C)C)[C@@H](C)CC [XII, C8^α-retro-KR12-NH2] (Octanoyl-RLFDKIRQVIRK-NH2) | 64 | 2 | 8 | 4 | 
CCCCCCC(CCCC)C(=O)N[C@@H](CCCCN)C(=O)N[C@@H](CCCNC(=N)N)C(=O)N[C@H](C(=O)N[C@H](C(=O)N[C@@H](CCC(N)=O)C(=O)N[C@@H](CCCNC(=N)N)C(=O)N[C@H](C(=O)N[C@@H](CCCCN)C(=O)N[C@@H](CC(=O)O)C(=O)N[C@@H](Cc1ccccc1)C(=O)N[C@@H](CC(C)C)C(=O)N[C@@H](CCCNC(=N)N)C(N)=O)[C@@H](C)CC)C(C)C)[C@@H](C)CC (stereo partly drawn) [XIII, 2-Buthyloctanoic acid-KR12-NH2] (X1-KRIVQRIKDFLR-NH2) | 8 | 2 | 0.5 | 2 | 
CCCCC(CC)C(=O)N[C@@H](CCCCN)C(=O)N[C@@H](CCCNC(=N)N)C(=O)N[C@H](C(=O)N[C@H](C(=O)N[C@@H](CCC(N)=O)C(=O)N[C@@H](CCCNC(=N)N)C(=O)N[C@H](C(=O)N[C@@H](CCCCN)C(=O)N[C@@H](CC(=O)O)C(=O)N[C@@H](Cc1ccccc1)C(=O)N[C@@H](CC(C)C)C(=O)N[C@@H](CCCNC(=N)N)C(N)=O)[C@@H](C)CC)C(C)C)[C@@H](C)CC (stereo partly drawn) [XIV, 2-Ethylhexanoic acid-KR12-NH2] (X3-KRIVQRIKDFLR-NH2) | 64 | 16 | 2 | 16 | 
CC[C@H](C)[C@H](NC(=O)[C@H](CCCNC(=N)N)NC(=O)[C@H](CCC(N)=O)NC(=O)[C@@H](NC(=O)[C@@H](NC(=O)[C@H](CCCNC(=N)N)NC(=O)[C@H](CCCCN)NC(=O)/C=C/c1ccccc1)[C@@H](C)CC)C(C)C)C(=O)N[C@@H](CCCCN)C(=O)N[C@@H](CC(=O)O)C(=O)N[C@@H](Cc1ccccc1)C(=O)N[C@@H](CC(C)C)C(=O)N[C@@H](CCCNC(=N)N)C(N)=O [XIX, trans-cinnamic acid-KR12-NH2] (X4-KRIVQRIKDFLR-NH2) | 32 | 8 | 4 | 8 | 
CC[C@H](C)[C@H](NC(=O)[C@H](CCCNC(=N)N)NC(=O)[C@H](CCC(N)=O)NC(=O)[C@@H](NC(=O)[C@@H](NC(=O)[C@H](CCCNC(=N)N)NC(=O)[C@H](CCCCN)NC(=O)CCc1ccccc1)[C@@H](C)CC)C(C)C)C(=O)N[C@@H](CCCCN)C(=O)N[C@@H](CC(=O)O)C(=O)N[C@@H](Cc1ccccc1)C(=O)N[C@@H](CC(C)C)C(=O)N[C@@H](CCCNC(=N)N)C(N)=O [XVII, 3-Phenylpropionic acid-KR12-NH2] (Hydrocinnamoyl-KRIVQRIKDFLR-NH2) | 64 | 4 | 4 | 8 | 
CC[C@H](C)[C@H](NC(=O)[C@H](CCCNC(=N)N)NC(=O)[C@H](CCC(N)=O)NC(=O)[C@@H](NC(=O)[C@@H](NC(=O)[C@H](CCCNC(=N)N)NC(=O)[C@H](CCCCN)NC(=O)CCCc1ccccc1)[C@@H](C)CC)C(C)C)C(=O)N[C@@H](CCCCN)C(=O)N[C@@H](CC(=O)O)C(=O)N[C@@H](Cc1ccccc1)C(=O)N[C@@H](CC(C)C)C(=O)N[C@@H](CCCNC(=N)N)C(N)=O [XVIII, 4-Phenylbutanoic acid-KR12-NH2] ({Butanoyl(4-Ph)}-KRIVQRIKDFLR-NH2) | 16 | 4 | 2 | 8 | 32
CC[C@H](C)[C@H](NC(=O)[C@H](CCCNC(=N)N)NC(=O)[C@H](CCC(N)=O)NC(=O)[C@@H](NC(=O)[C@@H](NC(=O)[C@H](CCCNC(=N)N)NC(=O)[C@H](CCCCN)NC(=O)C#Cc1ccccc1)[C@@H](C)CC)C(C)C)C(=O)N[C@@H](CCCCN)C(=O)N[C@@H](CC(=O)O)C(=O)N[C@@H](Cc1ccccc1)C(=O)N[C@@H](CC(C)C)C(=O)N[C@@H](CCCNC(=N)N)C(N)=O [XX, Phenylpropiolic acid-KR12-NH2] (X2-KRIVQRIKDFLR-NH2) | 64 | 16 | 4 | 8 | 8

From paper PMC10053710, “Influence of Lipidation Pattern of the KR12 Fragment of Peptide LL-37 on Its Antibacterial and Hemolytic Activities” (International Journal of Molecular Sciences, 2023)
